# From the supplement of paper PMC6411743
# ± gives the standard deviation of the averaged measurements. Only a part is listed here, and it is no random draw.
# Columns and labels:
# Assay in all cases: NP40-soluble protein abundance relative to vehicle (solubility fold change) (ratio); higher = more soluble protein in presence of AMP-PNP
# [1] = target: T1, E9PIV2 and related entries (UniProt P24001)
# T1 sequence (whole entry): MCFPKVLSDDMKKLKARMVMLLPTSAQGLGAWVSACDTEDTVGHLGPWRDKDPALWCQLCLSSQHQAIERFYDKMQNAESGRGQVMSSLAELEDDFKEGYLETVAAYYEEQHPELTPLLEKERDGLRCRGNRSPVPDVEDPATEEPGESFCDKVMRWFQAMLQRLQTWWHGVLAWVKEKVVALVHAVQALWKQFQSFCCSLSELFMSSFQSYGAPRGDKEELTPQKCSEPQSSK
# In short: (§1)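 Jurkat crude lysate (Dounce-homogenised) was treated with eight concentrations from 0.1 to 10 mM for 10 min at room temperature, then 3 min at 37 °C. It was solubilised with 0.8% NP40 and benzonase (60 min, 4 °C) and ultracentrifuged, and the supernatant was TMT-labelled for LC-MS/MS. Intensities were vsn-normalised, and the value is the fold change against the NP40-processed vehicle per replicate, from three independent experiments.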
# E9PNT2 = target: T2, E9PNT2 (UniProt Q6ZUM4)
# T2 sequence (whole entry): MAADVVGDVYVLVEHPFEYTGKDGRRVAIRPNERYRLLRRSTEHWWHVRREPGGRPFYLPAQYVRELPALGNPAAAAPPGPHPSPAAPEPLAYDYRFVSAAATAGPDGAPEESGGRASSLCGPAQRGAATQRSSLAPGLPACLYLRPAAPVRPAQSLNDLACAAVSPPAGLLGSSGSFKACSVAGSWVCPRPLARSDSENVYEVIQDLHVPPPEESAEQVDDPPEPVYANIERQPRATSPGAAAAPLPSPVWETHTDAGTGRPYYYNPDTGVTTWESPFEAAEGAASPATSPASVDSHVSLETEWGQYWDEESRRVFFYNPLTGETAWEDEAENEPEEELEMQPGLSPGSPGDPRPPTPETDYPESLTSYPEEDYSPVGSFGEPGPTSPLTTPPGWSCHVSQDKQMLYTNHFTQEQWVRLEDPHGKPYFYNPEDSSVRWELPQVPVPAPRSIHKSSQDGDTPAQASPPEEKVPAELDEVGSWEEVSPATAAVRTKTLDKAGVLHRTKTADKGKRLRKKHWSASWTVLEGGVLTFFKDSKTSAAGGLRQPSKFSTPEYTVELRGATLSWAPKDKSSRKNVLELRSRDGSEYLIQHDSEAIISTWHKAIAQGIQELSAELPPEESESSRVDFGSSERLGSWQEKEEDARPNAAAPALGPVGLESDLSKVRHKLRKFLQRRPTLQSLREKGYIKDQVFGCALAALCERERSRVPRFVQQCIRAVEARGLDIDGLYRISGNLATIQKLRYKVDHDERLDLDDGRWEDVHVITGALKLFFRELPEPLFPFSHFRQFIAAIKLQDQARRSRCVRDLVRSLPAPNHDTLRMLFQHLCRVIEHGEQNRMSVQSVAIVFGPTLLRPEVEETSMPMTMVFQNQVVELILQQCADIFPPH
# In short: as §1
# [2] = target: T3, E9PNW4 and related entries (UniProt P13987)
# T3 sequence (whole entry): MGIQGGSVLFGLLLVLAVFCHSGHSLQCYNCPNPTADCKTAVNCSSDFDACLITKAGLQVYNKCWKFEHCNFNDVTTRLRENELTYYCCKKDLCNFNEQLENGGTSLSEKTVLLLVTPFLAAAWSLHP
# In short: as §1
# [3] = target: T4, E9PP16 and related entries (UniProt Q8ND30)
# T4 sequence (whole entry): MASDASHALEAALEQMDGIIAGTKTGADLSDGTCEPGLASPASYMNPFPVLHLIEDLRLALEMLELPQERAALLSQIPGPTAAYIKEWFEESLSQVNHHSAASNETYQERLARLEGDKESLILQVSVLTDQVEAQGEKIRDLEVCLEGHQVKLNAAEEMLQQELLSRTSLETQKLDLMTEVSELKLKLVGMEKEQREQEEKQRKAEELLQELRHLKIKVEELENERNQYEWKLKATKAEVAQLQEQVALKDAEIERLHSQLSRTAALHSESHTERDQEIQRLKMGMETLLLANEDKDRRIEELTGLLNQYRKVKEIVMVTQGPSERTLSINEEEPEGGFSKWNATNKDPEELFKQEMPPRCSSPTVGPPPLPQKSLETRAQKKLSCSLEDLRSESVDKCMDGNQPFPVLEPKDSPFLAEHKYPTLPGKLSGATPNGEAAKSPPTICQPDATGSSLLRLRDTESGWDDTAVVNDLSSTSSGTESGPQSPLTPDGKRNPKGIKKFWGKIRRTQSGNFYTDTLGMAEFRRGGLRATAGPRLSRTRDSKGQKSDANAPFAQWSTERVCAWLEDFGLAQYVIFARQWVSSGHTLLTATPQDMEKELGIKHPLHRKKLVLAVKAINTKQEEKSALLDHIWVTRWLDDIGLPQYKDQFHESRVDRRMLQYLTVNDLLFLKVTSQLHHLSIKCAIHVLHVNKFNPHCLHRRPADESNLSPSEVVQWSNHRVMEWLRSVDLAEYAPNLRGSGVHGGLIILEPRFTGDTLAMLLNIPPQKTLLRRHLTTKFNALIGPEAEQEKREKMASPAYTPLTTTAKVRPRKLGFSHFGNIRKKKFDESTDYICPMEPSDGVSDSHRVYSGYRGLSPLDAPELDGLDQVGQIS
# In short: as §1
# [4] = target: T5, F5GZS6 and related entries (UniProt P08195)
# T5 sequence (whole entry): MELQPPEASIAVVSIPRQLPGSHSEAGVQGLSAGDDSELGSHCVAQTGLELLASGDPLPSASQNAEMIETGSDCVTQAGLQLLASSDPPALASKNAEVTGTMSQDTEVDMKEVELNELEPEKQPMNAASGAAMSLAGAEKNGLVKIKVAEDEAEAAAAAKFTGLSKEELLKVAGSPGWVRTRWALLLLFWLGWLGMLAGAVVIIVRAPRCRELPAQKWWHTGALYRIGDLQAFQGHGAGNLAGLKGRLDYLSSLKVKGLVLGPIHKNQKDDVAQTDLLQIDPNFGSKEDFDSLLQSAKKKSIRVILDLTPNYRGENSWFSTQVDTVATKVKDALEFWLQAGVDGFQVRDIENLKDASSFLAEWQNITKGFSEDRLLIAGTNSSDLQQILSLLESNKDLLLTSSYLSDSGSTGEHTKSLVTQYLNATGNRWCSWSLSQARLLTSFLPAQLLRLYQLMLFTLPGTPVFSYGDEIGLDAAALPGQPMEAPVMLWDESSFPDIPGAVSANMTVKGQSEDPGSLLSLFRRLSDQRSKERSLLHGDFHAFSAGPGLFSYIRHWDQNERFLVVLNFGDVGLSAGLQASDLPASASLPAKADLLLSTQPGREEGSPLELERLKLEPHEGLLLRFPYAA
# In short: as §1
# [5] = target: T6, F5H2B9 and related entries (UniProt Q9BZF9)
# T6 sequence (whole entry): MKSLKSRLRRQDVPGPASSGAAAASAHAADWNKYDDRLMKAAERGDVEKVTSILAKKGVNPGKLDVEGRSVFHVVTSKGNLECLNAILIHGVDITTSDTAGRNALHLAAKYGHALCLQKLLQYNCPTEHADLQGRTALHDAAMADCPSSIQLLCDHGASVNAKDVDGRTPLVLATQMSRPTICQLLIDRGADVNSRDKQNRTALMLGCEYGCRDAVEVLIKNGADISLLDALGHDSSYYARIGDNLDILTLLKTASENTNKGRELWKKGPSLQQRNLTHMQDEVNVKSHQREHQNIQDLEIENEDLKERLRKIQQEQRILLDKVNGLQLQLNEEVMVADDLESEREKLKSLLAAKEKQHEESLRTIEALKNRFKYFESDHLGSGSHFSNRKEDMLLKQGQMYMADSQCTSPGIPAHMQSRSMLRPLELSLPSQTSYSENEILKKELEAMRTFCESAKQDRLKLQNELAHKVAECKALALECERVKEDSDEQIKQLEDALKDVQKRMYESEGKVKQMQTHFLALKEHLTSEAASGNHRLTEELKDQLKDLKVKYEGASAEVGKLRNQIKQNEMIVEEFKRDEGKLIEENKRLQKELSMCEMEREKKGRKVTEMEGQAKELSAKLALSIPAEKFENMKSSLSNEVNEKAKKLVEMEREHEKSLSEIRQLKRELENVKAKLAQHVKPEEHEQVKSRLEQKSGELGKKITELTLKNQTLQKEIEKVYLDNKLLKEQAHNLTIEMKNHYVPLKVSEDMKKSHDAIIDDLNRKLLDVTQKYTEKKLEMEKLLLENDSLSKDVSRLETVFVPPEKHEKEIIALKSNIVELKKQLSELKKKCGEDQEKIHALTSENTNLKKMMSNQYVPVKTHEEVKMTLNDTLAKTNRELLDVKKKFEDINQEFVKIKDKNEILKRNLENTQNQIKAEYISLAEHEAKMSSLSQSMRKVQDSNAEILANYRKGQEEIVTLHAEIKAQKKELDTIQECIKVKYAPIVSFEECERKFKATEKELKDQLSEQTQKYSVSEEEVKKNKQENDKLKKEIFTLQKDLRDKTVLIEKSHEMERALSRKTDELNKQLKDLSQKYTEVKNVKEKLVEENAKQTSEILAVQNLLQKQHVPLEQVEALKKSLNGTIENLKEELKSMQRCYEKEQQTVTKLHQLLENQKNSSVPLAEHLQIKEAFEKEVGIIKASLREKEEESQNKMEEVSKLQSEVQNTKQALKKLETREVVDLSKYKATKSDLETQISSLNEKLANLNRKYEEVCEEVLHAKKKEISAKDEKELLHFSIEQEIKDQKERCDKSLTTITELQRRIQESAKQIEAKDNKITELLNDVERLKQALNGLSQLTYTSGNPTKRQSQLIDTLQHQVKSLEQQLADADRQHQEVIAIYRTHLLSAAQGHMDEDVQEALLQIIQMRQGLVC
# In short: as §1
# [6] = target: T7, F8VXK3 and related entries (UniProt Q9NPF2)
# T7 sequence (whole entry): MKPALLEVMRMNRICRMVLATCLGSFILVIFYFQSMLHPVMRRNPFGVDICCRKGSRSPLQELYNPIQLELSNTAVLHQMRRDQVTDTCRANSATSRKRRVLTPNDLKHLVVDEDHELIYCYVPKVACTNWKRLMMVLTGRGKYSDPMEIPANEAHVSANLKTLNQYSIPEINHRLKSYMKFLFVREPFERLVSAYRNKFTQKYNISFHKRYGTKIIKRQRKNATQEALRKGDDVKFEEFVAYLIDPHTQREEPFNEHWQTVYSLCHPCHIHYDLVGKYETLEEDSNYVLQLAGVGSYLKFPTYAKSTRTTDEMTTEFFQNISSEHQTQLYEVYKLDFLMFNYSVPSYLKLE
# In short: as §1
smiles,measurement,setting,value
Nc1ncnc2c1ncn2[C@@H]1O[C@H](COP(=O)(O)OP(=O)(O)NP(=O)(O)O)[C@@H](O)[C@H]1O [adenylyl imidodiphosphate],NP40-soluble protein abundance,[1]; concentration: 6mM,0.981 ± 0.012
same,NP40-soluble protein abundance,[1]; concentration: 8mM,1 ± 0.016
same,NP40-soluble protein abundance,[1]; concentration: 10mM,0.9704 ± 0.0055
same,NP40-soluble protein abundance,E9PNT2; concentration: 1mM,0.982 ± 0.028
same,NP40-soluble protein abundance,E9PNT2; concentration: 2mM,0.934 ± 0.048
same,NP40-soluble protein abundance,E9PNT2; concentration: 4mM,0.979 ± 0.031
same,NP40-soluble protein abundance,E9PNT2; concentration: 6mM,0.99 ± 0.052
same,NP40-soluble protein abundance,E9PNT2; concentration: 8mM,1.02 ± 0.027
same,NP40-soluble protein abundance,E9PNT2; concentration: 10mM,1.02 ± 0.032
same,NP40-soluble protein abundance,[2]; concentration: 1mM,1.05 ± 0.053
same,NP40-soluble protein abundance,[2]; concentration: 2mM,1.11 ± 0.13
same,NP40-soluble protein abundance,[2]; concentration: 4mM,1.03 ± 0.049
same,NP40-soluble protein abundance,[2]; concentration: 6mM,1.07 ± 0.051
same,NP40-soluble protein abundance,[2]; concentration: 8mM,1.1 ± 0.015
same,NP40-soluble protein abundance,[2]; concentration: 10mM,1.06 ± 0.03
same,NP40-soluble protein abundance,[3]; concentration: 1mM,1.004 ± 0.0032
same,NP40-soluble protein abundance,[3]; concentration: 2mM,0.997 ± 0.022
same,NP40-soluble protein abundance,[3]; concentration: 4mM,0.996 ± 0.028
same,NP40-soluble protein abundance,[3]; concentration: 6mM,1.05 ± 0.036
same,NP40-soluble protein abundance,[3]; concentration: 8mM,1.01 ± 0.022
same,NP40-soluble protein abundance,[3]; concentration: 10mM,1.034 ± 0.0043
same,NP40-soluble protein abundance,[4]; concentration: 1mM,0.988 ± 0.045
same,NP40-soluble protein abundance,[4]; concentration: 2mM,1.01 ± 0.11
same,NP40-soluble protein abundance,[4]; concentration: 4mM,0.992 ± 0.061
same,NP40-soluble protein abundance,[4]; concentration: 6mM,1.04 ± 0.086
same,NP40-soluble protein abundance,[4]; concentration: 8mM,1.03 ± 0.081
same,NP40-soluble protein abundance,[4]; concentration: 10mM,1.04 ± 0.071
same,NP40-soluble protein abundance,[5]; concentration: 1mM,1.04 ± 0.032
same,NP40-soluble protein abundance,[5]; concentration: 2mM,1.06 ± 0.053
same,NP40-soluble protein abundance,[5]; concentration: 4mM,1.05 ± 0.025
same,NP40-soluble protein abundance,[5]; concentration: 6mM,0.986 ± 0.03
same,NP40-soluble protein abundance,[5]; concentration: 8mM,0.977 ± 0.04
same,NP40-soluble protein abundance,[5]; concentration: 10mM,1.008 ± 0.0053
same,NP40-soluble protein abundance,[6]; concentration: 1mM,0.9969 ± 0.0033
same,NP40-soluble protein abundance,[6]; concentration: 2mM,0.993 ± 0.044
same,NP40-soluble protein abundance,[6]; concentration: 4mM,1.01 ± 0.011
same,NP40-soluble protein abundance,[6]; concentration: 6mM,1.01 ± 0.012
same,NP40-soluble protein abundance,[6]; concentration: 8mM,0.992 ± 0.04
same,NP40-soluble protein abundance,[6]; concentration: 10mM,1.017 ± 0.0081

# Exported bar-delimited: part of the list above
smiles | measurement | setting | value
Nc1ncnc2c1ncn2[C@@H]1O[C@H](COP(=O)(O)OP(=O)(O)NP(=O)(O)O)[C@@H](O)[C@H]1O [adenylyl imidodiphosphate] | NP40-soluble protein abundance | [2]; concentration: 6mM | 1.07 ± 0.051
same | NP40-soluble protein abundance | [3]; concentration: 1mM | 1.004 ± 0.0032
same | NP40-soluble protein abundance | [6]; concentration: 2mM | 0.993 ± 0.044
